Patent US6428529B1, “Epidural administration of therapeutic compounds with sustained rate of release” (SkyePharma Inc., priority 1995, dated 2002)

Experiment: Pharmacokinetics: morphine concentrations in CSF and serum by RIA after single epidural dose

## CN1CC[C@]23c4c5ccc(O)c4O[C@H]2[C@@H](O)C=C[C@H]3[C@H]1C5.O=S(=O)(O)O [MS, morphine sulfate]
Sprague-Dawley, rat, serum, 250 ug
  Cmax: 1460 ± 97 ng/mL
rats, 250-μg epidural injection, CSF
  AUC, CSF: 432 ng·days/mL
rats, 250-μg epidural injection, cisternal CSF
  Cmax, CSF: 6060 ± 3590 ng/mL
rats, 250-μg epidural injection, serum
  AUC, Serum: 58 ng·days/mL
